Data source: PubChem BioAssay AID1259405 (NCATS, 2018)

Assay: 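Mouse-designed siRNAs used to find CHO productivity engineering targets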 (primary screen)
Cells: Chinese hamster CHO-K1 ovary cells with stable secreted eGFP expression
Knock-down reagent: single siRNA against mouse genes, 0.8 pmol siRNA per well (2 µl of 400 nM stock)
Time to read-out: 3 days
Measurement: 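Per-well intracellular GFP measured by laser scanning cytometry, plus viability from ATP luminescence, each relative to plate median of non-targeting control wells, in %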
Direction: GFP, % of control: higher = more GFP per well, higher productivity
Hit rule: 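Called active when intracellular GFP, relative to negative control, is at or above 120%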
Here is an unselected part of about 50,000 deposited reagents. In the full data, about 4,000 (8%) are marked active. 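Mouse siRNA library applied to hamster cells; one well for each siRNA.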 The numbers tell different reagents against one gene apart. Not all columns of the deposit are shown.

GFP, % of control, by target gene and reagent
Zbtb33: #1 76.9 inactive; #2 90.5 inactive; #3 79.4 inactive
Abca16: #1 102 inactive; #2 65.7 inactive; #3 65.8 inactive
Zdhhc24: #1 62.1 inactive; #2 47.8 inactive; #3 40.4 inactive
Irak1: #1 139 active; #2 72.5 inactive; #3 108 inactive
Ric3: #1 92.2 inactive; #2 47.3 inactive; #3 85.2 inactive
Aplp2: #1 129 active; #2 76.6 inactive; #3 108 inactive
Kirrel1: #1 108 inactive; #2 76.6 inactive; #3 75.4 inactive
Hmga1: #1 104 inactive; #2 78.5 inactive; #3 44.4 inactive
Vmn2r7: #1 100 inactive; #2 75.2 inactive; #3 81.1 inactive
Il18rap: #1 66.9 inactive; #2 106 inactive; #3 50.4 inactive
Tmem109: #1 67.3 inactive; #2 103 inactive; #3 96.9 inactive
Zfp819: #1 69.2 inactive; #2 96.8 inactive; #3 100 inactive
Tmem59: #1 65.2 inactive; #2 104 inactive; #3 80.5 inactive
H2aj: #1 101 inactive; #2 111 inactive; #3 75.6 inactive
Or5al5: #1 120 inactive; #2 116 inactive; #3 78 inactive
Zfp319: #1 48.2 inactive; #2 68.3 inactive; #3 79.7 inactive
Dlk1: #1 58.3 inactive; #2 66.8 inactive; #3 121 active
Enam: #1 60.6 inactive; #2 66.7 inactive; #3 51.4 inactive
Myh10: #1 58.4 inactive; #2 78.3 inactive
Wnt16: #1 66.8 inactive; #2 73.8 inactive; #3 78.4 inactive
Ccdc3: #1 65.5 inactive; #2 86.6 inactive; #3 113 inactive
Or5b12: #1 95.6 inactive; #2 74.8 inactive; #3 87.9 inactive
Pik3ip1: #1 76.7 inactive; #2 69.1 inactive; #3 83.2 inactive
Zdhhc7: #1 71 inactive; #2 108 inactive; #3 84.4 inactive
Myh6: #1 148 active; #2 80.8 inactive
Tspo2: #1 62.2 inactive; #2 78.6 inactive; #3 35.9 inactive
Anapc5: #1 93.6 inactive; #2 86.9 inactive; #3 75.7 inactive
Msantd1: #1 36.9 inactive; #2 50.8 inactive; #3 86.8 inactive
4930591A17Rik: #1 36.5 inactive; #2 38.2 inactive; #3 54.2 inactive
Saa1: #1 68.1 inactive; #2 84.5 inactive; #3 118 inactive
Ccdc32: #1 65.2 inactive; #2 87.4 inactive; #3 144 active
Gda: #1 89.9 inactive; #2 95.7 inactive; #3 75.9 inactive
Vmn1r19: #1 79.4 inactive; #2 123 active; #3 68.3 inactive
Rxfp2: #1 64.8 inactive; #2 95.6 inactive; #3 78.2 inactive
Lfng: #1 73 inactive; #2 51.4 inactive; #3 93.8 inactive
Or5ac15: #1 24.5 inactive; #2 71.1 inactive; #3 56.3 inactive
Cnot3: #1 24.5 inactive; #2 57.3 inactive

Active calls (from the list above):
GFP, % of control, by target gene and reagent
Irak1: #1 139 active
Aplp2: #1 129 active
Dlk1: #3 121 active
Myh6: #1 148 active
Ccdc32: #3 144 active
Vmn1r19: #2 123 active
